{"source": "PubChem BioAssay AID602196 (INSERM, 2012)", "assay": "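Genes whose knock-down alters cisplatin killing of lung cancer cells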", "system": "human A549 lung cancer cells", "knock-down reagent": "siRNA pair against human genes", "time to read-out": "48 h transfection before cisplatin; time from cisplatin to read-out not stated", "challenge": "cisplatin at a dose killing half of control-siRNA cells; exact dose and duration not given", "read-out": "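Cisplatin cell death as a shift from the 50% death seen with control siRNA; siRNAs toxic or growth-blocking alone scored 0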", "scale": "two-siRNA summed score (-2 to +2): higher = both siRNAs protect from cisplatin killing; -2 means both sensitise; mean protection from cisplatin (shift in death): higher = protection from cisplatin killing", "rule for the call": "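Each siRNA scores 0 if harmful alone by LDH or WST-1, otherwise +1 if it reduces and -1 if it increases cisplatin killing; a gene is active when both siRNAs agree (sum +2 or -2)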", "calls": "active = both siRNAs shift cisplatin killing the same way; inactive = no consistent shift, or siRNA harmful alone", "note": "The whole screen tested about 23,000 reagents; this is a part drawn at random. 455 of them (2%) were called active. 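Active includes both protection and sensitisation; some change values fall well beyond the stated -50 to +50 range.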 A number with no mark means an inactive call. Further read-outs or replicates are left out here. Not stated in the record: the amount of reagent."}
{"target":"CNOT7","two-siRNA summed score (-2 to +2)":"2 (active)","mean protection from cisplatin (shift in death) (%)":14}
{"target":"LOC442402","two-siRNA summed score (-2 to +2)":1,"mean protection from cisplatin (shift in death) (%)":13.5}
{"target":"TXN","two-siRNA summed score (-2 to +2)":0,"mean protection from cisplatin (shift in death) (%)":18.8}
{"target":"PRMT9","two-siRNA summed score (-2 to +2)":0,"mean protection from cisplatin (shift in death) (%)":14}
{"target":"ZNF502","two-siRNA summed score (-2 to +2)":0,"mean protection from cisplatin (shift in death) (%)":6.5}
{"target":"RAB11FIP2","two-siRNA summed score (-2 to +2)":"2 (active)","mean protection from cisplatin (shift in death) (%)":12.9}
{"target":"TM4SF18","two-siRNA summed score (-2 to +2)":0,"mean protection from cisplatin (shift in death) (%)":5.9}
{"target":"SPACDR","two-siRNA summed score (-2 to +2)":-1,"mean protection from cisplatin (shift in death) (%)":-6.7}
{"target":"SNX31","two-siRNA summed score (-2 to +2)":0,"mean protection from cisplatin (shift in death) (%)":6.1}
{"target":"B4GALT3","two-siRNA summed score (-2 to +2)":0,"mean protection from cisplatin (shift in death) (%)":2}
{"target":"SH3KBP1","two-siRNA summed score (-2 to +2)":1,"mean protection from cisplatin (shift in death) (%)":15.1}
{"target":"LOC440273","two-siRNA summed score (-2 to +2)":1,"mean protection from cisplatin (shift in death) (%)":6.8}

No new results follow: entries from further up.
{"target":"SH3KBP1","two-siRNA summed score (-2 to +2)":1,"mean protection from cisplatin (shift in death) (%)":15.1}
{"target":"LOC440273","two-siRNA summed score (-2 to +2)":1,"mean protection from cisplatin (shift in death) (%)":6.8}

Continued.
{"target":"LOC400369","two-siRNA summed score (-2 to +2)":0,"mean protection from cisplatin (shift in death) (%)":13}
{"target":"FREM3","two-siRNA summed score (-2 to +2)":0,"mean protection from cisplatin (shift in death) (%)":10.7}
{"target":"LOC402011","two-siRNA summed score (-2 to +2)":0,"mean protection from cisplatin (shift in death) (%)":8.3}
{"target":"PCNP","two-siRNA summed score (-2 to +2)":1,"mean protection from cisplatin (shift in death) (%)":7.3}
{"target":"DDX21","two-siRNA summed score (-2 to +2)":0,"mean protection from cisplatin (shift in death) (%)":-4.1}
{"target":"GDF5","two-siRNA summed score (-2 to +2)":-1,"mean protection from cisplatin (shift in death) (%)":-15.9}
{"target":"LOC391044","two-siRNA summed score (-2 to +2)":1,"mean protection from cisplatin (shift in death) (%)":12.2}
{"target":"SAMD3","two-siRNA summed score (-2 to +2)":-1,"mean protection from cisplatin (shift in death) (%)":-9.6}
{"target":"LOC388339","two-siRNA summed score (-2 to +2)":1,"mean protection from cisplatin (shift in death) (%)":18.7}
